Data published in PubChem BioAssay AID2685 (National Center for Advancing Translational Sciences (NCATS), 2010).
The other results are listed elsewhere or left out. Shown are side measurements of this screen, not its main read-out; they come without a call. Compounds called inactive in the main read-out are mostly missing here. Potencies come from curve fits of mixed quality, noted in brackets.

Experiment: qHTS Assay for Lipid Storage Modulators in Drosophila S3 Cells;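 on cell number change: cells counted by Cell Tracker Red CMTPX staining in the red channel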
Conditions: BODIPY lipid droplet fluorescence, 18-24 h; for cell number change: measured here: cell count max response, cells fed with added oleic acid
Summary of the method: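 Drosophila S3 cells got compounds at several concentrations plus oleic acid (400 uM solution). Laser-scanning cytometry with 488 nm excitation read lipid droplets at 500-530 nm and cells at 575-640 nm. Percent activity was relative to 20 uM Triacsin C.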

[1] = measured here: cell number channel AC50, cells fed with added oleic acid
[2] = measured here: lipid fluorescence (Fed channel) AC50, cells fed with added oleic acid

Row | Structure (SMILES) | cell number change [%] | AC50 [1] | AC50 [2]
1 | Cc1cc(C)cc(NS(=O)(=O)c2ccc3oc(=O)ccc3c2)c1 | 18.3 | 580 nM [rising, full curve, poor fit] | –
2 | CCOCCCN1C(=O)C2C(C(=O)Nc3ccc(OCC)cc3)C3C=CC2(O3)C1C(=O)NC1CCCCC1 (stereo unspecified) | 1.71 | – | 29100 nM [falling, single point]
3 | Cc1nn(CC(=O)N2N=C(C(F)F)CC2(O)C(F)F)c(C)c1[N+](=O)[O-] (stereo unspecified) | 30.7 | 29100 nM [rising, single point] | 130 nM [falling, full curve]
4 | Cc1cccc(C(=O)NNC(=O)Nc2ccccc2)c1 | 37.9 | – | –
5 | O=C(NS(=O)(=O)c1ccccc1)c1ccccc1F | 7.05 | – | 18400 nM [falling, partial curve]
6 | COc1ccccc1/C=C(/C#N)C(=O)O | 15.6 | 146 nM [falling, partial curve, poor fit] | 2310 nM [rising, full curve, poor fit]
7 | COc1ccc(S(=O)(=O)N2CCOC2CNC(=O)C(=O)NCc2ccccc2OC)cc1 (stereo unspecified) | -10.4 | – | 29100 nM [rising, single point]
8 | CCCCc1c(C)nc2ccccc2c1SCCC(=O)O | 6.43 | – | 206 nM [falling, full curve, poor fit]
9 | O=C(NC(=S)Nc1cc(S(=O)(=O)N2CCOCC2)ccc1O)c1ccco1 | 22.4 | 651 nM [rising, full curve, poor fit] | 1460 nM [rising, partial curve, poor fit]
10 | CCN(CC)CCNC(=O)c1ccc(NC(=O)c2ccc(C(=O)c3ccccc3)cc2)cc1 | – | – | 29100 nM [falling, single point]
11 | Clc1cccc(Cc2ccc(Cl)nn2)c1 | 32.7 | 2310 nM [rising, partial curve, poor fit] | –
12 | O=C(Nc1ccc2c(c1)OCO2)c1ccc(NC2CC2)c([N+](=O)[O-])c1 | 11.4 | – | 5170 nM [rising, partial curve, poor fit]
13 | O/N=C/c1ccc(-c2cc(Cl)ccc2Cl)o1 | 29.2 | – | 366 nM [rising, full curve, poor fit]
14 | O=C(CCl)Nc1c2c(nn1-c1ccccc1)CSC2 | – | – | 16400 nM [falling, partial curve]
15 | Cc1ccc(C)c(NC(=S)N2CCC(NC(=O)c3ccco3)CC2)c1 | -12.9 | – | 29100 nM [falling, single point]
16 | COc1cccc(C(=O)Nc2c(C)nn(-c3ccccc3)c2C)c1 | – | 580 nM [falling, full curve] | 3660 nM [falling, single point]
17 | Cc1ccccc1OCC(=O)NCCC1=CCCCC1 | -43.5 | 5800 nM [falling, single point] | 20600 nM [falling, partial curve, poor fit]
18 | COCc1nc2ccccc2n1Cc1ccccc1C | -50.2 | – | –

Row | Structure (SMILES) | cell number change [%] | AC50 [1] | AC50 [2]
19 | CCS(=O)(=O)C1=NSC2=NC(=O)/C(=C\c3ccc(OC(=O)c4ccco4)cc3)C(=N)N21 | – | – | 6510 nM [falling, single point]
20 | Cc1ccc(S(=O)(=O)NC(C(=O)OCC(=O)NC2CCS(=O)(=O)C2)C(C)C)cc1 (stereo unspecified) | -125 | 20600 nM [falling, single point] | 5170 nM [falling, full curve]
21 | Cc1ccc2cc(C)c3nnc(SCC(=O)N4CCCc5ccccc54)n3c2c1C | – | 517 nM [rising, single point] | 231 nM [rising, full curve, poor fit]
22 | O=C(Nc1ccc2c(c1)OCO2)c1ccc(CN2CCOCC2)cc1 | – | 92 nM [rising, full curve, poor fit] | 146 nM [rising, full curve, poor fit]
23 | COc1ccccc1C(=O)NNC(=O)c1ccc(F)cc1 | 6.42 | – | 3260 nM [rising, partial curve]
24 | C=CCNC(=S)NNC(=O)CC12CC3CC(CC(C3)C1)C2 | -39.4 | 2310 nM [falling, partial curve] | 1030 nM [falling, full curve]
25 | Cc1ccc(S(=O)(=O)CCC(=O)Nc2cccc(C)c2)cc1 | 0.862 | – | –
26 | CCC(C)NCCOCCOc1cc(C)c(Cl)c(C)c1 (stereo unspecified) | 34 | – | 3260 nM [falling, single point]
27 | CCOc1ccc(Nc2nc(N)nc(CSC(=S)N3CCN(c4ccccc4)CC3)n2)cc1 | 15.2 | 411 nM [rising, full curve, poor fit] | –
28 | COc1ccc(Cc2c(O)nc(SCC(=O)N3CCOCC3)[nH]c2=O)cc1 | -8.63 | – | 1460 nM [falling, partial curve]
29 | O=C(Nc1c2c(nn1-c1ccc(F)cc1)CS(=O)(=O)C2)c1ccc2c(c1)OCO2 | – | – | 731 nM [rising, single point]
30 | CC(C)[C@H](NC(N)=O)C(=O)Nc1cccc([N+](=O)[O-])c1 | -29 | – | –
31 | O=C(Oc1c(CN2CCOCC2)cc(Cl)c2cccnc12)c1ccc(F)cc1 | -13.6 | – | –
32 | Cn1c(=O)n(C)c2cc([N+](=O)[O-])c(N3CCN(C(=O)c4ccc(Cl)cc4)CC3)cc21 | 25.1 | – | 20600 nM [rising, single point]
33 | Cc1ccccc1Oc1cc(-n2ncc(Cl)c(Cl)c2=O)ncn1 | -84.8 | 7310 nM [falling, partial curve] | 2910 nM [falling, full curve]
34 | Cc1n[nH]c(=O)nc1Nc1ccc(O)cc1 | 11.7 | 2910 nM [rising, single point] | 32600 nM [rising, single point]
35 | COc1cc(/C=C/C(=O)O)cc(S(=O)(=O)Nc2ccc3cn[nH]c3c2)c1OC | 31.6 | 16400 nM [rising, partial curve, poor fit] | 16400 nM [rising, single point]
36 | CCNC(=O)CN(c1ccc(C)cc1)S(=O)(=O)c1ccc(SC)cc1 | – | – | 580 nM [falling, single point]
